Measured values reported in the supplement of paper PMC10849652.
This is one part of the list. Residues, ends and D or L forms follow the SMILES beside them. *: point of attachment. Cbz = O=C(OCc1ccccc1)*

The chains behind the UniProt entries cited, without tags or fusion partners. Where a name states a change or a piece, a line headed by the entry shows the natural chain unless it says otherwise.
UniProt Q9GZZ1: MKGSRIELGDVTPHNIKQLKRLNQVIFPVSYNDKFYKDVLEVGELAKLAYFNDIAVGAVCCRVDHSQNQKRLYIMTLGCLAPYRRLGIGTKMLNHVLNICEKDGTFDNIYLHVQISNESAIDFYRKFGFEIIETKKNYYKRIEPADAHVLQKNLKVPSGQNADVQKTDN
UniProt Q6P582, whole entry, looked up: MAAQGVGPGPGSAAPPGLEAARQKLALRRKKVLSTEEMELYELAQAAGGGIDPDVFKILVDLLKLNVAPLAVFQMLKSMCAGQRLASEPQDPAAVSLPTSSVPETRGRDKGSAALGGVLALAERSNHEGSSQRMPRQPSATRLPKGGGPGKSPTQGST
UniProt Q14686, whole entry, looked up: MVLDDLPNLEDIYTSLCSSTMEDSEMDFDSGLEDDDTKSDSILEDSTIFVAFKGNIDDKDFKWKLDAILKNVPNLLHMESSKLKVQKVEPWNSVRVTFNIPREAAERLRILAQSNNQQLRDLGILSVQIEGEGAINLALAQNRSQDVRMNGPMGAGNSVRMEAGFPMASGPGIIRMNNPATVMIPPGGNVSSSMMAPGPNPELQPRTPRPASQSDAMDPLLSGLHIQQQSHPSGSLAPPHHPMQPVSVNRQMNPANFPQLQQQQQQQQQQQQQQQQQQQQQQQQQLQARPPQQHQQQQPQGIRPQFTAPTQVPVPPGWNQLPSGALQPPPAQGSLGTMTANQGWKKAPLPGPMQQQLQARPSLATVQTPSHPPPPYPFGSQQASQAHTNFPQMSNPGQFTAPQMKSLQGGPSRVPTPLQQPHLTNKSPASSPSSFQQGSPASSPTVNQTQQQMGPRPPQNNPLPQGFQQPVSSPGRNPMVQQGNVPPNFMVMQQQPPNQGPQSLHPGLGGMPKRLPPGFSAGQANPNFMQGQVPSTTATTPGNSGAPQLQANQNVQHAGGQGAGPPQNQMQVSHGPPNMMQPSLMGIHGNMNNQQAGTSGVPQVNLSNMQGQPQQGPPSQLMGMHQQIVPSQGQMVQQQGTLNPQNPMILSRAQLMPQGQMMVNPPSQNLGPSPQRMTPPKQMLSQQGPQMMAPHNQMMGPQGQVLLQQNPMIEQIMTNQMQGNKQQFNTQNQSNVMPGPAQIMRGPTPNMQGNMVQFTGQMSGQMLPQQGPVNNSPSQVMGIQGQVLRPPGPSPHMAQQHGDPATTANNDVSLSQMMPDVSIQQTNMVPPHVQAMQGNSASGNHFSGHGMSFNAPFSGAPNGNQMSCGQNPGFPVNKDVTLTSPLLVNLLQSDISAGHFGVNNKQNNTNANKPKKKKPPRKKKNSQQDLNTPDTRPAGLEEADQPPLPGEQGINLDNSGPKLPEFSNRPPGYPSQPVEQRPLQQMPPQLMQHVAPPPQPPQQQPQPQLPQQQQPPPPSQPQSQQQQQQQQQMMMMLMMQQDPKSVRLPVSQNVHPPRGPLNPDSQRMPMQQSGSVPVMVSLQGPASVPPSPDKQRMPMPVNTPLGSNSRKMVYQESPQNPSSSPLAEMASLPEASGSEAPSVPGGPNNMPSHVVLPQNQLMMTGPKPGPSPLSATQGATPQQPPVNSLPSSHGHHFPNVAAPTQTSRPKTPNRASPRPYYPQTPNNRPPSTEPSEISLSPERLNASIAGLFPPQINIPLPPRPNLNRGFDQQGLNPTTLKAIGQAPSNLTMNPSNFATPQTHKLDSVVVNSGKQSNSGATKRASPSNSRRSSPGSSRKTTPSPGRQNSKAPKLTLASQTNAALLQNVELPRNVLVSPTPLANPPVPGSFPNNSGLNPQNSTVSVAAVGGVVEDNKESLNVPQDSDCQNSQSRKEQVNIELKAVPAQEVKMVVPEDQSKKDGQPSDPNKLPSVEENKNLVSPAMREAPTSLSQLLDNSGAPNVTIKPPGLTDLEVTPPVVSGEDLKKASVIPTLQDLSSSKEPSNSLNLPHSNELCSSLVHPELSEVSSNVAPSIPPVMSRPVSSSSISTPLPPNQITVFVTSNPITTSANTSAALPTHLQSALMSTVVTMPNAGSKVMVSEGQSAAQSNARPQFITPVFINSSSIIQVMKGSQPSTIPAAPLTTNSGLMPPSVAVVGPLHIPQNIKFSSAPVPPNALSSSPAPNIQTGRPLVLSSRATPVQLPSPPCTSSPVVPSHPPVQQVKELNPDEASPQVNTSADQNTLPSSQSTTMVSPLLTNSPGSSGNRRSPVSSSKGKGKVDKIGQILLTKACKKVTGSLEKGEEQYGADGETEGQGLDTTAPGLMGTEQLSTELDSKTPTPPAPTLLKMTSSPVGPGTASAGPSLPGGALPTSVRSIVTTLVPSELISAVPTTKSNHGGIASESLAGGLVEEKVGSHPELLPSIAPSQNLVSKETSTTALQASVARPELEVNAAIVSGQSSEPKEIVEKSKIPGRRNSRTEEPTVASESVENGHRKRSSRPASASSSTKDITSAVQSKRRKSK
UniProt Q8NCW5: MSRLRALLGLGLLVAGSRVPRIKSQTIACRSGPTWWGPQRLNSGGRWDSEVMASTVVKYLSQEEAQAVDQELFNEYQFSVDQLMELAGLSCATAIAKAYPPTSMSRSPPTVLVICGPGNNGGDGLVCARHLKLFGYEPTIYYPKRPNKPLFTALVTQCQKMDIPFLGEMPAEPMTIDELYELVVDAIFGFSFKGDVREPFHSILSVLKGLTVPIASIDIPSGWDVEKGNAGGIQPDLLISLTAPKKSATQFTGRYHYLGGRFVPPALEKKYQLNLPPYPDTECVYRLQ
UniProt Q5VZE5: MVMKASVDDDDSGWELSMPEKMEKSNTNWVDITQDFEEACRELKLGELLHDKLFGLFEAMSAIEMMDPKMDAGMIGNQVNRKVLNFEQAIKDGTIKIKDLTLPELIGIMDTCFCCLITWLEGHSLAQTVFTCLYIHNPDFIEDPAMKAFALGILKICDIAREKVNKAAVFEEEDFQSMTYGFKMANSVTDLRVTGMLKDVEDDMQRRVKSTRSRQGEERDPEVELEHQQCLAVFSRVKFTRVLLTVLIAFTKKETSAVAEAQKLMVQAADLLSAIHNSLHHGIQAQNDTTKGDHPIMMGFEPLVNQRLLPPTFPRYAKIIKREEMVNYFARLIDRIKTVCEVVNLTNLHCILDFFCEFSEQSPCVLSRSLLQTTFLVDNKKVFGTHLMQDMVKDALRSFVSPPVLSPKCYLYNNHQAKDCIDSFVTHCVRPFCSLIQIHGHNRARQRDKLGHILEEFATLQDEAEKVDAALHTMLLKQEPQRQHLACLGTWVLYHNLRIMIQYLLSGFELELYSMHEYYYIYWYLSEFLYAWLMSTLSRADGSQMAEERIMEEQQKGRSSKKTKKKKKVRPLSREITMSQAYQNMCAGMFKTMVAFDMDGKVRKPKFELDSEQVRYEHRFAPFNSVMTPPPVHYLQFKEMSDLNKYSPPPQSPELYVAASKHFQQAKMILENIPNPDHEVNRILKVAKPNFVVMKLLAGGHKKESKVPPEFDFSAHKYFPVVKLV
UniProt Q68D85: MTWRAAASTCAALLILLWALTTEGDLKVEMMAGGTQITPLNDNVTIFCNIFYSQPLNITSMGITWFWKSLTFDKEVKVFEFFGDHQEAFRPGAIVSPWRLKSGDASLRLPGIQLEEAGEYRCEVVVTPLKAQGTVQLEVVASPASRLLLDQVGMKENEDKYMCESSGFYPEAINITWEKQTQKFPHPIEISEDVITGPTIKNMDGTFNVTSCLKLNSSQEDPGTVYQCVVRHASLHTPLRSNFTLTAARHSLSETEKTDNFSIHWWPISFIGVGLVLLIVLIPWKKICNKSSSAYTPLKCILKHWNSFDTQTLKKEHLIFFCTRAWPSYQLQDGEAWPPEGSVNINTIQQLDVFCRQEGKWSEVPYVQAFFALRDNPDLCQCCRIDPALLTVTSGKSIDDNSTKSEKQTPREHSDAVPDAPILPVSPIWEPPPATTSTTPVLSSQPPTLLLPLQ
UniProt P41227: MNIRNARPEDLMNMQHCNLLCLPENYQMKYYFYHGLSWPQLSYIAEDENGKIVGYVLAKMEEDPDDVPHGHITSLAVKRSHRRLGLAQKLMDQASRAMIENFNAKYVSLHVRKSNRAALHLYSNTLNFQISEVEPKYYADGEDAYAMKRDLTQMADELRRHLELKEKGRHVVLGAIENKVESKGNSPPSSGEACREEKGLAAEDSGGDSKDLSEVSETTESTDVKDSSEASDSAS
UniProt P56181: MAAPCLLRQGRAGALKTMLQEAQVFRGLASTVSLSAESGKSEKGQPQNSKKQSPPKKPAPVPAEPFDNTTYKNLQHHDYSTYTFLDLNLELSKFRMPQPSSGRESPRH
UniProt Q9P0J0, whole entry, looked up: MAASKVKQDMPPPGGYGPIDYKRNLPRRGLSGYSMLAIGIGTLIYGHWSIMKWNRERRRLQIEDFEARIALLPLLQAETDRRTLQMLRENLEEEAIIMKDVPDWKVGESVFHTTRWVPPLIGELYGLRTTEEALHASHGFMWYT
UniProt O75380, whole entry, looked up: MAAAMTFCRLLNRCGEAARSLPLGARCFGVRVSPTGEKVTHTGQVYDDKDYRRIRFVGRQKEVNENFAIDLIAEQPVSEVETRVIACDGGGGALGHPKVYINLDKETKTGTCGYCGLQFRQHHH
UniProt Q9UBB6: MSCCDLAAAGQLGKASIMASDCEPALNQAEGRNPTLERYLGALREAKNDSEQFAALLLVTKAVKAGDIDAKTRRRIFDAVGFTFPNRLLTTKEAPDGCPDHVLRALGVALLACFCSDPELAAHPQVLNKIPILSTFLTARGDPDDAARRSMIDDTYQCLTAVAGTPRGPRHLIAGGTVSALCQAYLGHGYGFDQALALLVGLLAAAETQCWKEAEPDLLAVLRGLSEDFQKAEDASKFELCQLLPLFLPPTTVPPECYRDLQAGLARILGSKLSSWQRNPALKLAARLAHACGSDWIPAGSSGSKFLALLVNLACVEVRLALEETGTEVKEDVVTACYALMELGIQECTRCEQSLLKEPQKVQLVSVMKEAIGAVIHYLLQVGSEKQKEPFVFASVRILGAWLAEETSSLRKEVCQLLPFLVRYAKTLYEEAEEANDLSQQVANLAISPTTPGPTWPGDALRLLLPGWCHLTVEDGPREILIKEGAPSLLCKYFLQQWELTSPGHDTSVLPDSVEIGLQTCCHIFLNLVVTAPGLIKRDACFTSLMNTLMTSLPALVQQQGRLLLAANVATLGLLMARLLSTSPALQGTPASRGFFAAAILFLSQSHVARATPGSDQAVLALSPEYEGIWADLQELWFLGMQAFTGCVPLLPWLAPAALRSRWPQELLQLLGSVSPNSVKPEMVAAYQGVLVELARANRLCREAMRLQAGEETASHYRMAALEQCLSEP
UniProt O95298, whole entry, looked up: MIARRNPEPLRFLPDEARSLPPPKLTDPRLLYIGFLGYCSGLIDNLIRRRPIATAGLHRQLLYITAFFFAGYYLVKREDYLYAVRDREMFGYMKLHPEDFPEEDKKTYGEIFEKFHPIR

Tests used:
Experiment in all cases: log2 fold change, soluble protein after heating vs DMSO (PISA); higher = thermal stabilisation; K562 cells, 10 uM, 30 min; active = over 0.2 and 3.5 SD of the protein, either way, in both replicates (recomputed)
erlotinib = compound: C#Cc1cccc(Nc2ncnc3cc(OCCOC)c(OCCOC)cc23)c1 [erlotinib]
Method in brief: (§1)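 K562 cells (2×10^6 cells/mL) were treated with 10 μM compound for 30 min, and aliquots were heated for 3 min over 48°C-58°C. Pooled aliquots were extracted in PBS with 0.5% NP-40 at 4°C, and the supernatant after 21,000xg for 90 min was measured by TMTpro 16plex LC-MS/MS with channel sums equalised. Reported thermal stability, relative to control samples and from duplicates, is a log2 fold change.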

[1] = compound: C/C(=N\NC(=O)C1=CC(=CC=C1)S(=O)(=O)N2CCOCC2)/C3=C(C=CC(=C3)Cl)O
Method in brief: as §1

[2] = compound: C1=CC(=C(C=C1Cl)C2=NC3=NC=CN=C3C(=N2)NC4=CC=NC=C4)F
Method in brief: as §1

[3] = compound: C1=CC(=CC=C1C2=NC3=C(N2)C=C(C=C3)C(=O)N)OC4=CC=C(C=C4)Cl
Method in brief: as §1

[4] = compound: C1=CC2=C(C=CC(=C2)/C=C\3/C(=O)NC(=NCC4=CC=CS4)S3)N=C1
Method in brief: as §1

[5] = compound: C1=CC2=NC=CN=C2C=C1/C=C/3\C(=O)NC(=O)S3
Method in brief: as §1

[6] = compound: C1=CC=C(C=C1)C2=NC(=C(N2)C3=CC=NC=C3)C4=CC(=C(C=C4)Cl)O
Method in brief: as §1

[7] = compound: C1=CC=C2C(=C1)C3=NNC4=CC=CC(=C43)C2=O
Method in brief: as §1

[8] = compound: C1CCN(C1)C(=O)NC2=CC=CC(=C2)NC3=NC=C(C(=N3)NCCC4=CN=CN4)Br
Method in brief: as §1

[9] = compound: C1CN(CCC1(CC2=CC=C(C=C2)Cl)N)C3=NC=NC4=C3C=CN4
Method in brief: as §1

IRAK-1-4 Inhibitor I = compound: C1COCCN1CCN2C3=CC=CC=C3N=C2NC(=O)C4=CC(=CC=C4)[N+](=O)[O-] [IRAK-1-4 Inhibitor I]
Method in brief: as §1

ibrutinib = compound: C=CC(=O)N1CCC[C@@H](n2nc(-c3ccc(Oc4ccccc4)cc3)c3c(N)ncnc32)C1 [ibrutinib]
Method in brief: as §1

[10] = compound: CC(=O)c1cnc2ccc(-c3cc(Cl)c(O)c(Cl)c3)nc2c1N[C@H]1CC[C@H](CN(C)C)CC1
Method in brief: as §1

ralimetinib = compound: CC(C)(C)Cn1c(N)nc2ccc(-c3[nH]c(C(C)(C)C)nc3-c3ccc(F)cc3)nc21 [ralimetinib]
Method in brief: as §1

[11] = compound: CC(C)(O)CC(=O)NCCn1ccc2ncnc(Nc3ccc(Oc4cccc(C(F)(F)F)c4)c(Cl)c3)c21
Method in brief: as §1

[12] = compound: CC(C)C1=C2N=C(C=C(N2N=C1)NCC3=CC=CC=C3)NCCCCCCN
Method in brief: as §1

[13] = compound: CC(C)C[C@@H](C=O)NC(=O)[C@H](CC(C)C)NC(=O)[C@H](CC(C)C)NC(=O)OCc1ccccc1
Method in brief: as §1

pinometostat = compound: CC(C)N(C[C@H]1O[C@@H](n2cnc3c(N)ncnc32)[C@H](O)[C@@H]1O)[C@H]1C[C@@H](CCc2nc3cc(C(C)(C)C)ccc3[nH]2)C1 [pinometostat]
Method in brief: as §1

[14] = compound: CC1=C(C(CC(=O)N1)C2=CC=C(C=C2)C(F)(F)F)C(=O)NC3=C(C=C4C(=C3)C=NN4)F
Method in brief: as §1

[15] = compound: CC1=C(C2=C(C=C1)C(=O)C3=CC=CC=C3N2CCCN)C
Method in brief: as §1

Measured: log2 fold change

NCOR2 (UniProt C9J0Q5)
inactive: erlotinib 0.087 | [1] 0.153 | [2] 0.073 | [3] 0.052 | [4] 0.232 | [5] -0.003 | [6] -0.036 | [7] -0.071 | [8] 0.003 | [9] 0.118 | IRAK-1-4 Inhibitor I 0.181 | ibrutinib 0.004 | [10] -0.102 | ralimetinib 0.013 | [11] 0.04 | [12] -0.007 | [13] -0.077 | pinometostat -0.032 | [14] -0.109 | [15] 0.041

NAA50 (UniProt Q9GZZ1)
inactive: erlotinib 0.037 | [1] 0.06 | [2] 0.043 | [3] -0.012 | [4] -0.02 | [5] -0.144 | [6] 0.053 | [7] -0.005 | [8] -0.054 | [9] 0.037 | IRAK-1-4 Inhibitor I 0.024 | ibrutinib 0.02 | [10] -0.029 | ralimetinib -0.034 | [11] -0.013 | [12] -0.011 | [13] -0.048 | pinometostat -0.091 | [14] -0.026 | [15] -0.005

MZT2A (UniProt Q6P582)
inactive: erlotinib -0.137 | [1] 0.04 | [2] -0.054 | [3] 0.042 | [4] -0.046 | [5] 0.008 | [6] -0.001 | [7] 0.021 | [8] -0.072 | [9] -0.095 | IRAK-1-4 Inhibitor I 0.008 | ibrutinib 0.057 | [10] -0.048 | ralimetinib -0.096 | [11] -0.107 | [12] 0.038 | [13] 0.154 | pinometostat -0.013 | [14] 0.01 | [15] 0.057

NCOA6 (UniProt Q14686)
inactive: erlotinib -0.064 | [1] -0.015 | [2] -0.085 | [3] 0.123 | [4] 0.086 | [5] -0.021 | [6] 0.058 | [7] -0.005 | [8] 0.039 | [9] 0.025 | IRAK-1-4 Inhibitor I -0.023 | ibrutinib -0.088 | [10] -0.099 | ralimetinib -0.02 | [11] -0.01 | [12] 0.061 | [13] 0.023 | pinometostat 0.04 | [14] -0.009 | [15] -0.186

NAXE (UniProt Q8NCW5)
inactive: erlotinib -0.005 | [1] 0.031 | [2] 0.09 | [3] 0.016 | [4] 0.059 | [5] -0.003 | [6] 0.04 | [7] -0.007 | [8] -0.017 | [9] 0.001 | IRAK-1-4 Inhibitor I 0.049 | ibrutinib 0.034 | [10] 0.013 | ralimetinib -0.046 | [11] 0.046 | [12] 0.063 | [13] -0.016 | pinometostat -0.076 | [14] -0.012 | [15] 0.066

NAA35 (UniProt Q5VZE5)
inactive: erlotinib 0.018 | [1] 0.043 | [2] 0.078 | [3] 0.077 | [4] 0.025 | [5] 0 | [6] 0.027 | [7] 0.035 | [8] 0 | [9] 0.007 | IRAK-1-4 Inhibitor I 0.027 | ibrutinib 0.008 | [10] -0.065 | ralimetinib 0.019 | [11] -0.009 | [12] -0.049 | [13] -0.012 | pinometostat 0.039 | [14] 0.019 | [15] 0.068

NCR3LG1 (UniProt Q68D85)
inactive: erlotinib -0.017 | [1] -0.191 | [2] -0.056 | [3] -0.002 | [4] -0.135 | [5] 0.005 | [6] 0.05 | [7] 0.123 | [8] -0.106 | [9] -0.003 | IRAK-1-4 Inhibitor I -0.003 | ibrutinib 0.049 | [10] 0.055 | ralimetinib -0.029 | [11] 0.069 | [12] 0.12 | [13] 0.035 | pinometostat -0.014 | [14] -0.005 | [15] 0.126

NAA10 (UniProt P41227)
inactive: erlotinib -0.001 | [1] 0.098 | [2] 0.031 | [3] 0.037 | [4] -0.025 | [5] -0.084 | [6] 0.052 | [7] 0.003 | [8] -0.028 | [9] 0.015 | IRAK-1-4 Inhibitor I 0.013 | ibrutinib 0.005 | [10] -0.012 | ralimetinib -0.033 | [11] -0.034 | [12] -0.003 | [13] -0.016 | pinometostat -0.048 | [14] 0.009 | [15] 0.056

Reprinted at random: 2 entries already listed.
NCR3LG1 (UniProt Q68D85)
inactive: erlotinib -0.017 | [1] -0.191 | [2] -0.056 | [3] -0.002 | [4] -0.135 | [5] 0.005 | [6] 0.05 | [7] 0.123 | [8] -0.106 | [9] -0.003 | IRAK-1-4 Inhibitor I -0.003 | ibrutinib 0.049 | [10] 0.055 | ralimetinib -0.029 | [11] 0.069 | [12] 0.12 | [13] 0.035 | pinometostat -0.014 | [14] -0.005 | [15] 0.126

NAA10 (UniProt P41227)
inactive: erlotinib -0.001 | [1] 0.098 | [2] 0.031 | [3] 0.037 | [4] -0.025 | [5] -0.084 | [6] 0.052 | [7] 0.003 | [8] -0.028 | [9] 0.015 | IRAK-1-4 Inhibitor I 0.013 | ibrutinib 0.005 | [10] -0.012 | ralimetinib -0.033 | [11] -0.034 | [12] -0.003 | [13] -0.016 | pinometostat -0.048 | [14] 0.009 | [15] 0.056

(list continues)

NDUFV3 (UniProt P56181)
inactive: erlotinib -0.175 | [1] 0.001 | [2] 0.045 | [3] -0.076 | [4] 0.049 | [5] 0.135 | [6] -0.002 | [7] -0.027 | [8] -0.18 | [9] -0.093 | IRAK-1-4 Inhibitor I 0.003 | ibrutinib -0.032 | [10] -0.015 | ralimetinib -0.126 | [11] 0.019 | [12] 0.197 | [13] 0.091 | pinometostat -0.078 | [14] 0.012 | [15] 0.109

NDUFA13 (UniProt Q9P0J0)
inactive: erlotinib -0.003 | [1] 0.067 | [2] 0.081 | [3] -0.026 | [4] 0.017 | [5] 0.023 | [6] 0.022 | [7] 0.008 | [8] -0.056 | [9] 0.054 | IRAK-1-4 Inhibitor I -0.084 | ibrutinib 0.007 | [10] 0.012 | ralimetinib -0.048 | [11] -0.06 | [12] -0.156 | [13] -0.007 | pinometostat -0.016 | [14] -0.016 | [15] 0.013

NDUFS6 (UniProt O75380)
inactive: erlotinib -0.083 | [1] -0.057 | [2] -0.016 | [3] 0.043 | [4] -0.044 | [5] 0.022 | [6] -0.007 | [7] -0.046 | [8] 0.146 | [9] 0.158 | IRAK-1-4 Inhibitor I 0.026 | ibrutinib 0.02 | [10] 0.082 | ralimetinib -0.027 | [11] -0.052 | [12] 0.069 | [13] 0.242 | pinometostat 0.002 | [14] 0.053 | [15] -0.07

NDUFAB1 (UniProt O14561)
inactive: erlotinib -0.245 | [1] -0.13 | [2] 0.069 | [3] -0.005 | [4] -0.166 | [5] 0.063 | [6] 0.13 | [7] 0.132 | [8] -0.136 | [9] -0.223 | IRAK-1-4 Inhibitor I 0.001 | ibrutinib 0.031 | [10] 0.001 | ralimetinib -0.149 | [11] -0.022 | [12] 0.059 | [13] -0.135 | pinometostat -0.057 | [14] 0.012 | [15] 0.31

NDUFV3 isoform 2 (UniProt P56181)
inactive: erlotinib -0.05 | [1] -0.078 | [2] -0.02 | [3] 0.038 | [4] -0.051 | [5] 0.03 | [6] -0.048 | [7] -0.028 | [8] 0.044 | [9] 0.041 | IRAK-1-4 Inhibitor I 0.059 | ibrutinib 0.04 | [10] 0.035 | ralimetinib -0.004 | [11] 0.012 | [12] 0.11 | [13] 0.167 | pinometostat 0 | [14] 0.043 | [15] -0.056

NCDN isoform 3 (UniProt Q9UBB6)
inactive: erlotinib 0.061 | [1] 0.024 | [2] -0.01 | [3] -0.054 | [4] 0.043 | [5] 0.038 | [6] 0.03 | [7] 0.039 | [8] -0.037 | [9] -0.03 | IRAK-1-4 Inhibitor I 0.023 | ibrutinib -0.033 | [10] -0.033 | ralimetinib 0.015 | [11] -0.202 | [12] -0.099 | [13] 0 | pinometostat 0.094 | [14] 0.024 | [15] 0.069

NDUFC2 (UniProt O95298)
inactive: erlotinib -0.019 | [1] 0.136 | [2] 0.117 | [3] 0.007 | [4] 0.071 | [5] 0.087 | [6] -0.017 | [7] -0.004 | [8] 0.011 | [9] -0.012 | IRAK-1-4 Inhibitor I -0.112 | ibrutinib -0.018 | [10] 0.005 | ralimetinib -0.158 | [11] -0.066 | [12] -0.105 | [13] 0.104 | pinometostat -0.076 | [14] 0.026 | [15] 0.053
